Measurements reported in PubChem BioAssay AID1259308 (NCATS, 2017)
Aim: 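Knock-downs that increase output of a recombinant reporter protein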 (primary screen). Cells: human HEK293 embryonic kidney cells stably expressing firefly luciferase (HEK-CMV-Luc2-Hygro). Knock-down reagent: single siRNA against human genes, 0.8 pmol siRNA per well. Time to read-out: 72 h. Detection: 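Reporter luminescence and viable-cell signal on separate replicate plates, given as percent of non-targeting control and median/MAD z-scores, plus per-cell luciferase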. Direction: total luciferase, z-score and total luciferase, % of control: higher = more reporter protein produced. Rule for the call: 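An siRNA counts as active if its total luciferase robust z-score exceeds 3; genes with two or more such siRNAs out of three were retested with fresh siRNAs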. Meaning of the calls: active = raised luciferase; inactive = no rise.
Shown is an unselected part of about 59,000 reagents. Of all reagents, about 1,510 (2.6%) are marked active. 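Calls use total luciferase alone and ignore viability, so some active siRNAs may act by altering cell number.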 The numbers tell different reagents against one gene apart. Further read-outs or replicates are left out here.

| gene symbol | siRNA no. | total luciferase, z-score | total luciferase, % of control | activity call |
| --- | --- | --- | --- | --- |
| ZNF483 (GeneID 158399) | 1 | 1.52 | 112 | inactive |
| ZNF483 (GeneID 158399) | 2 | -0.034 | 81.2 | inactive |
| ZNF483 (GeneID 158399) | 3 | 1.05 | 103 | inactive |
| HMX3 (GeneID 340784) | 1 | 0.755 | 96.9 | inactive |
| HMX3 (GeneID 340784) | 2 | 0.472 | 91.3 | inactive |
| HMX3 (GeneID 340784) | 3 | -0.399 | 73.9 | inactive |
| GIT2 (GeneID 9815) | 1 | -0.264 | 76.6 | inactive |
| GIT2 (GeneID 9815) | 2 | 1.33 | 108 | inactive |
| GIT2 (GeneID 9815) | 3 | 0.553 | 92.9 | inactive |
| C22orf39 (GeneID 128977) | 1 | 0.329 | 88.4 | inactive |
| C22orf39 (GeneID 128977) | 2 | 0.345 | 88.7 | inactive |
| C22orf39 (GeneID 128977) | 3 | -0.283 | 76.3 | inactive |
| EGFL6 (GeneID 25975) | 1 | 1.18 | 105 | inactive |
| EGFL6 (GeneID 25975) | 2 | 0.438 | 90.6 | inactive |
| EGFL6 (GeneID 25975) | 3 | -0.344 | 75 | inactive |
| CCDC80 (GeneID 151887) | 1 | -0.619 | 69.6 | inactive |
| CCDC80 (GeneID 151887) | 2 | 0.279 | 87.4 | inactive |
| CCDC80 (GeneID 151887) | 3 | 0.372 | 89.3 | inactive |
| DLX6 (GeneID 1750) | 1 | -0.904 | 63.9 | inactive |
| DLX6 (GeneID 1750) | 2 | -1.03 | 61.3 | inactive |
| DLX6 (GeneID 1750) | 3 | 1.25 | 107 | inactive |
| ARPP19P1 (GeneID 646227) | 1 | 1.1 | 104 | inactive |
| ARPP19P1 (GeneID 646227) | 2 | 0.192 | 85.7 | inactive |
| ARPP19P1 (GeneID 646227) | 3 | 0.238 | 86.6 | inactive |
| P2RX2 (GeneID 22953) | 1 | 0.288 | 87.6 | inactive |
| P2RX2 (GeneID 22953) | 2 | -0.719 | 67.6 | inactive |
| P2RX2 (GeneID 22953) | 3 | -0.0864 | 80.2 | inactive |
| RNF152 (GeneID 220441) | 1 | -0.649 | 69 | inactive |
| RNF152 (GeneID 220441) | 2 | -0.394 | 74 | inactive |
| RNF152 (GeneID 220441) | 3 | -0.77 | 66.6 | inactive |

Next part; the last 2 above are carried over.
| gene symbol | siRNA no. | total luciferase, z-score | total luciferase, % of control | activity call |
| --- | --- | --- | --- | --- |
| RNF152 (GeneID 220441) | 2 | -0.394 | 74 | inactive |
| RNF152 (GeneID 220441) | 3 | -0.77 | 66.6 | inactive |
| GAK (GeneID 2580) | 1 | 0.109 | 84 | inactive |
| GAK (GeneID 2580) | 2 | 0.664 | 95.1 | inactive |
| GAK (GeneID 2580) | 3 | 0.755 | 96.9 | inactive |
| H2AP (GeneID 25763) | 1 | 1.57 | 113 | inactive |
| H2AP (GeneID 25763) | 2 | -0.0625 | 80.6 | inactive |
| H2AP (GeneID 25763) | 3 | -0.289 | 76.1 | inactive |
| DNAJC25 (GeneID 548645) | 1 | 1.32 | 108 | inactive |
| DNAJC25 (GeneID 548645) | 2 | 0.389 | 89.6 | inactive |
| DNAJC25 (GeneID 548645) | 3 | -0.746 | 67.1 | inactive |
| POLR2H (GeneID 5437) | 1 | -2.95 | 23.2 | inactive |
| POLR2H (GeneID 5437) | 2 | -2.74 | 27.3 | inactive |
| POLR2H (GeneID 5437) | 3 | -2.06 | 40.8 | inactive |
| VCAN (GeneID 1462) | 1 | -0.517 | 71.6 | inactive |
| VCAN (GeneID 1462) | 2 | 0.231 | 86.5 | inactive |
| VCAN (GeneID 1462) | 3 | -0.504 | 71.9 | inactive |
| KLF11 (GeneID 8462) | 1 | 1.94 | 120 | inactive |
| KLF11 (GeneID 8462) | 2 | -0.941 | 63.2 | inactive |
| KLF11 (GeneID 8462) | 3 | 0.107 | 84 | inactive |
| SSR3 (GeneID 6747) | 1 | 0.801 | 97.8 | inactive |
| SSR3 (GeneID 6747) | 2 | 0.0569 | 83 | inactive |
| SSR3 (GeneID 6747) | 3 | 2.36 | 129 | inactive |
| CFAP410 (GeneID 755) | 1 | 0.158 | 85 | inactive |
| CFAP410 (GeneID 755) | 2 | -0.0494 | 80.9 | inactive |
| CFAP410 (GeneID 755) | 3 | -0.602 | 69.9 | inactive |
| COASY (GeneID 80347) | 1 | -1.27 | 56.5 | inactive |
| COASY (GeneID 80347) | 2 | 0.444 | 90.7 | inactive |
| COASY (GeneID 80347) | 3 | -1.08 | 60.3 | inactive |
| FNDC3A (GeneID 22862) | 1 | -0.185 | 78.2 | inactive |
| FNDC3A (GeneID 22862) | 2 | 0.643 | 94.7 | inactive |
| FNDC3A (GeneID 22862) | 3 | 1.24 | 107 | inactive |
| ANKRD13B (GeneID 124930) | 1 | -0.364 | 74.6 | inactive |
| ANKRD13B (GeneID 124930) | 2 | 0.99 | 102 | inactive |
| ANKRD13B (GeneID 124930) | 3 | 0.462 | 91.1 | inactive |
| PDGFRB (GeneID 5159) | 1 | 0.0872 | 83.6 | inactive |
| PDGFRB (GeneID 5159) | 2 | -0.252 | 76.9 | inactive |
| PDGFRB (GeneID 5159) | 3 | 1.19 | 106 | inactive |
| DNAJC19P9 (GeneID 644589) | 1 | -0.57 | 70.6 | inactive |
| DNAJC19P9 (GeneID 644589) | 2 | -0.928 | 63.4 | inactive |
| DNAJC19P9 (GeneID 644589) | 3 | -2.04 | 41.2 | inactive |
| ROS1 (GeneID 6098) | 1 | 0.533 | 92.5 | inactive |
| ROS1 (GeneID 6098) | 2 | 1.62 | 114 | inactive |
| ROS1 (GeneID 6098) | 3 | -0.724 | 67.5 | inactive |
| SSTR3 (GeneID 6753) | 1 | -2.13 | 39.5 | inactive |
| SSTR3 (GeneID 6753) | 2 | -0.231 | 77.3 | inactive |
| SSTR3 (GeneID 6753) | 3 | 0.0964 | 83.8 | inactive |
